This note sets out measurements from doi:10.1101/2025.03.13.643117.

Chains of the proteins cited; added tags and fusions are not shown.
UniProt I6YC53, whole entry: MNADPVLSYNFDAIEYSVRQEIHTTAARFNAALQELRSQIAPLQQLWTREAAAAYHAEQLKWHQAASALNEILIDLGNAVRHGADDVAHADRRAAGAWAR
UniProt P9WNH6, whole entry: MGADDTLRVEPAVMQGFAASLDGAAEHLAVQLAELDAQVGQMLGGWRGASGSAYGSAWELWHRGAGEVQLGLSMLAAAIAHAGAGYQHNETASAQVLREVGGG
UniProt P9WNH8, whole entry: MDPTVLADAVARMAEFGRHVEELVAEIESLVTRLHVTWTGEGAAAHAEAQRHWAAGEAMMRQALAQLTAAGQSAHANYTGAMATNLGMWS
UniProt I6Y3I6, whole entry: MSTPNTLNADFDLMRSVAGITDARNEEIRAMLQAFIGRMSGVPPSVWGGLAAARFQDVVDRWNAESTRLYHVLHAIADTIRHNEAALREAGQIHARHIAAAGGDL

The target in experiment [1] is EsxT-His8 (M. tuberculosis) (UniProt I6YC53). As to the kind of experiment: pull-down.
In experiment [2] the target is EsxF_(His8) (M. tuberculosis) (UniProt P9WNH6). As to the kind of experiment: pull-down.
Experiment [3] addresses EsxT (of the purified EsxUT complex) (M. tuberculosis) (UniProt I6YC53). As to the kind of experiment: co-purification.

No constants are given. Whether binding was seen depends on the method and setting. For some of these results: Binding seen in cells or lysates may run through a third protein. Some results given as binding are weak or reduced against the parent protein; the word gives no strength.

On to “EsxE (control pull-down with EsxT-His8) (from UniProt P9WNH8 1-90)”, for which the binding entry in experiment [1] is listed as “binds”. EsxE_(FLAG) (from UniProt P9WNH8 1-90): the binding entry in experiment [2] is listed as “binds”.

In the case of “EsxF (control pull-down with EsxT-His8) (from UniProt P9WNH6 1-103)”, the binding entry in experiment [1] is “binds”.

Turning to EsxTMyc (from UniProt I6YC53 1-100), in experiment [2], the binding result is reported as “binds”. “EsxU (control pull-down with EsxT-His8) (from UniProt I6Y3I6 1-105)”: in experiment [1], the binding result was “binds”. As to “EsxU (of the purified EsxUT complex) (from UniProt I6Y3I6 1-105)”, the binding entry in experiment [3] is on record as “binds”. In the case of HAEsxU (from UniProt I6Y3I6 1-105), the binding result in experiment [2] is “binds”.
